Test: Adsorption of Δ^9-THC from spiked artificial oral fluid to cotton swab, read by G6PDH homogeneous enzyme immunoassay (Hitachi 717)
Type: physicochemical
Conditions: for Recovered from swab: oral fluid centrifuged from cotton swab after overnight storage

In the case of `CCCCCc1cc(O)c2c(c1)OC(C)(C)[C@@H]1CCC(C)=C[C@@H]21` [Δ^9-THC, Δ^9-tetrahydrocannabinol], the Reference (Example 1, 25 ng/ml spiked, no adsorption to collection device) is reported as 350 mA/min, the Recovered from swab (Example 1, 25 ng/ml spiked) is reported as 321 mA/min and the Reference (Example 1, 100 ng/ml spiked, no adsorption to collection device) is reported as 420 mA/min. The Recovered from swab (Example 1, 100 ng/ml spiked) was 326 mA/min, the “Δ^9-THC depleted from the sample, i.e., adsorbed to the cotton swab” value (Example 5, 25, 50, 100 ng/ml spiked, 1 ml, overnight, centrifugation) was greater than 95% and the Reference (Example 6, 25 ng/ml spiked, no adsorption) was 340 mA/min. For the same compound, the Reference (Example 6, 50 ng/ml spiked, no adsorption) was 400 mA/min, the Reference (Example 6, 100 ng/ml spiked, no adsorption) was 420 mA/min and the “Δ^9-THC adsorbed to the cotton swab” value (Example 6, 25, 50, 100 ng/ml spiked, 2.4 ml, overnight, compressed out) was greater than 95%.

Reference: US20060078955A1, “Method for retrieving delta9-THC from oral fluid” (Lin-Zhi International, priority 2004, published 2006)
